Laboratory results as given in patent US12252701B2, “Chimeric antigen receptor T cell therapy” (KITE PHARMA, INC., priority 2020, dated 2025).
For at least one compound, name, drawing or mass did not settle the structure.

Experiments:
[1] = system: phospho-STAT panel (pSTAT3/4/5), CD3+ T cells; assay: phospho-STAT induction by IL-6, MesoScale Discovery phospho-STAT panel; type: cell-based, human; details: IL-6 stimulation 100 ng/ml, 20 minutes; 10 μM to 0.125 μM
Protocol: CD19 CAR-T, PBMC or CD3+ T cells (AllCells) were thawed and rested 0/N at 37° C. in R10 media. Cells were seeded at 700,000 cells/well and were either untreated or treated with 100 ng/ml IL6+drug at indicated concentrations for 20 minutes at 37° C. The cells were then washed with cold PBS and followed by 60 μl of Tris lysis buffer (provided by MSD) for 30 minutes on ice. Lysates were collected by spin down for 10 minutes at >10,000 rpm. 25 μl/well per condition was used for MesoScale Discovery (MSD) assay using the phospho-STAT panel (pSTAT3/4/5) from MesoScale Discovery following the manufacturer's protocol. pSTAT panel plates were blocked with 150 μl of blocker A solution for 1 hr at RT with shaking. Plates were washed three times with 1× Tris wash buffer. 25 μl of lysate samples were added per well, incubated 2 hr at room temperature or at 4° C. overnight. Plates were washed 3 times with 1× tris wash buffer and then 25 μl of detection antibody solution were added to each well and incubated for 1 hr at room temperature with shaking. Plates were washed and 1× read buffer added to each well and plates were read on the MSD instrument.

[2] = system: CAR-T cells; assay: CAR-T cell expansion assay (KIP-1 or CD3/CD28 stimulation); details: at the doses tested (Table 40)
[3] = system: NALM6.GFP.LUC.CD19 target cells; assay: Serial killing assay; type: cell-based, human
Protocol: CD19 CAR-T cells were thawed in RPMI media supplemented with HEPES, Penicillin/Streptomycin/L-Glutamine and 10% FBS and rested overnight. The following day, drugs were serially diluted and prepared in 96-well plates. Rested T cells were counted and normalized so that 25,000 or 8,333 T cells were plated with 25,000 NALM6.GFP.LUC.CD19 target cells (1:1 or 1:3 Effector:Target ratio) in the prepared 96-well plates. At 16 hour post-incubation and every 3-4 days, T cell killing of targets was measured via luciferase detection. D-luciferin substrate was added to the co-culture wells at a final concentration of 0.14 mg/mL and plates were incubated at 37° C. in the dark for 10 minutes. Luminescent signal was read immediately after in a VarioSkan™ LUX microplate reader. T cell-mediated cytotoxicity was calculated as follows: % Cytotoxicity=[1−luciferase signal of (sample of interest/target alone control)]*100. Afterwards, co-cultures were stained with LIVE/DEAD and antibodies against CD4, CD8 and KIP-1 and then washed. Cells were then analyzed and quantified via the Attune NxT flow cytometer. T cells were then repeatedly stimulated with fresh 25,000 target cells, and this process was repeated every 3-4 days.

[4] = system: Nalm6 cells; assay: Serial killing assay, T-cell (CD4, CD8) and Nalm6 cell counts by flow cytometry; type: cell-based, human; details: for impact on T-cell counts and Nalm6 (tumor) cell counts: E:T ratio of 1:1, dose titration; for impact on T-cell counts and Nalm6 cell counts: E:T ratio of 1:3, dose titration
Protocol: T-cell counts (CD4 and CD8) were assessed by flow cytometry.
Nalm6 cells were assessed by flow cytometry.
T-cell counts (CD4 and CD8) and Nalm6 cells were assessed by flow cytometry.

[5] = E:T ratio 1:3, all doses tested

SMILES | effect on phosphorylated-STAT-1, STAT-3 and STAT-5 levels [1] | effect on T cell expansion [2] | T-cell counts ([3]; E:T ratio 1:1) | serial killing ([3]; E:T ratio 1:1) | T-cell counts [3, 5] | serial killing [3, 5] | impact on T-cell counts and Nalm6 (tumor) cell counts [4] | impact on T-cell counts and Nalm6 cell counts [4] | T-cell counts ([3]; E:T ratio 1:1, 5 nM dose) | T-cell counts ([3]; E:T ratio 1:1, 10 and 20 nM doses)
CC[C@@H]1CN(C(=O)NCC(F)(F)F)C[C@@H]1c1cnc2cnc3[nH]ccc3n12 [upadacitinib] | reduction of phosphorylated-STAT-1, STAT-3 and STAT-5 levels in a dose-responsive manner | severe effects | reduced | negatively impacted serial killing | reduced | negatively impacted serial killing | negatively impacted | negatively impacted |  | 
CCS(=O)(=O)N1CC(CC#N)(n2cc(-c3ncnc4[nH]ccc34)cn2)C1 [baricitinib] |  |  |  |  | reduced |  | negatively impacted | negatively impacted | trend toward elevated CD4+ and CD8+ T-cells | decreased T-cell counts
